Test results published in the supplement of paper PMC4683952.
The other results are listed elsewhere or left out. Rule as the data show it: active = 2 or more and inactive = the rest. Repeats in this data set agree poorly, so a single value says little.

Each compound was assayed on Lgr5 (MarsCy1-Lgr5-EGFP, U2OS) (assay: cell-surface Lgr5 expression (SCi1 fluorescence, background-subtracted) relative to WT DMSO (fold of DMSO control); higher = more Lgr5 at the plasma membrane). Details: U2OS MarsCy1-Lgr5-EGFP stable; treatment time: overnight; library: ActiProbe-5K (TimTec); 25 µM.

cell-surface Lgr5 expression, inactive:
Brc1ccc2c(c1)CCCN2 0.874, Cc1sc(-n2cccc2)c(CO)c1C 1.26, O=C(NC1CCCCC1NC(=O)C1CCCCC1)C1CCCCC1 (stereo not drawn) 1.06, O=C(NC1CCCCCC1)C1CC1 0.941, Cc1nn(CCc2nnc(C(C)n3ncc(Cl)c3C)o2)c(C)c1Cl (stereo not drawn) 1.09, COC(=O)C1=C(C)NC2=C(C(=O)CC(C)(C)C2)C1c1cc(Br)c(C)s1 (stereo not drawn) 1.36, Cc1cc(S(=O)(=O)NCc2ccco2)c(C)s1 0.963, CC12CN3CCN(CC(C3)C1(O)CN1CCOCC1)C2 (stereo not drawn) 1.12, CNC(C)c1cccs1.Cl (stereo not drawn) 1.18, O=C(NCCC1=CCCCC1)c1ccc(Br)o1 0.92, Fc1ccc(C2Nc3cccc4cccc(c34)N2)cc1 0.935, COC(=O)c1c(NC(C)=O)sc2c1C(C(=O)OC)CC2 (stereo not drawn) 1.43, OC1CCCc2c1[nH]c1ccc(Br)cc21 (stereo not drawn) 1.24, c1cc2c(s1)C1CCCCC1OC21C2CC3CC(C2)CC1C3 (stereo not drawn) 1.06, O=C([O-])CCCC(=O)c1c[nH]c2ccccc12.[Na+] 0.931, CC1=C(Cl)c2ccc(C)cc2S1(=O)=O 1.37, Cc1nc2c(Br)cc(Br)cc2c(=O)o1 0.996, NCCNC(=O)Cn1cc([N+](=O)[O-])cn1 1.3, Cc1nnc(-c2c[nH]nc2N)[nH]1 1.01, O=S(=O)([O][K])N1C(O)C(O)N(S(=O)(=O)[O][K])C(O)C1O (stereo not drawn) 1.14, Cc1oc(C(=O)O)cc1CSCc1cc(C(=O)O)c(C)o1 1.28, CC(C)Sc1nc2c(N)ncnc2[nH]1 1.04, O=C(CC1CCS(=O)(=O)C1)Nc1ccc[nH]c1=O (stereo not drawn) 1.36, Nc1nc(C2CC2)c(Sc2sc(N)nc2C2CC2)s1 1.49, O=S(=O)(Nc1ccc(F)cc1F)c1ccc2c(c1)OCCO2 1.35, Cc1cc(C)c(Cc2c(C)c(/C=N\O)c(C)c(-c3c(C)cc(C)c(/C=N\O)c3C)c2C)c(C)c1/C=N\O 1.09, Nc1nc2c(ncn2COCCO)c(=O)[nH]1 1.02, Cc1ccnc(/N=N/c2cc(C)ccn2)c1 0.915, COc1cccc(-c2nnc3n2N=C(c2ccc(OC)c(OC)c2)CS3)c1 0.878, S=C(Nc1cccnc1)NC1CCCCC1 1.08, NS(=O)(=O)c1ccc(Cl)cc1 1.18, COc1nc(NCCN2CCOCC2)nc(OC)n1 1.26, O=C1CS/C(=N/c2ccn(C34CC5CC(CC(C5)C3)C4)n2)N1CC1CCCO1 (stereo not drawn) 1.17, Clc1ccccc1CO/N=C1/CCCc2nonc21 0.79, C=CCSc1nn2c(=O)c3ccccc3nc2s1 1.22, Cc1cc(C)nc(SCCS(=O)(=O)c2ccc(C(C)(C)C)cc2)n1 0.996, c1ccc2c(N3CCN(c4ncnc5ccccc45)CC3)ncnc2c1 0.956, CN(C1CCS(=O)(=O)C1)S(=O)(=O)c1ccc(N2CCCC2=O)cc1 (stereo not drawn) 1.32, OC12CC(C3COC1O3)n1c(nc3ccccc31)CO2 (stereo not drawn) 1.54, O=C(NNC(=O)c1cccs1)c1ccc(Br)o1 0.973, CCOC(=O)c1sc2nc3n(c(=O)c2c1C)CCC3 1.24, Cc1nn2ncnc2c(O)c1Cl 1.24, c1ccc2c(c1)CCCC2C1=NCCN1 (stereo not drawn) 1.29, CC1=C(C(=O)OC2CCCCC2)C(c2ccc(C)o2)C2=C(CCCC2=O)N1 (stereo not drawn) 1.26, CC(=O)Nc1nonc1NC1=CCCCC1 0.987, CCCCCSC1=C(C#N)C(C)(C)C(C#N)C(=O)N1 (stereo not drawn) 1.15, C=CC[C@H]1CC=C[C@H](CC=C)N1C(C)=O 1.15, O=S(=O)(Nc1cccnc1)c1cc(Cl)ccc1Cl 1.29, CCS(=O)(=O)c1nc(-c2ccc(F)cc2)cc(C(F)(F)F)n1 0.382, N#CC1=CC(C#N)=C(C#N)N/C1=C(\N)C#N 1.08, Cc1ccc2nsnc2c1Br 1.06, CC1CCc2c(sc(NC(=O)C3CC3)c2C(=O)OC(C)C)C1 (stereo not drawn) 1.23, O=[N+]([O-])c1cc(Oc2ccc(Br)cc2)cc(Oc2ccc(Br)cc2)c1 1.25, [N+](c1ccc(N\N=C(/C2CC2)C2CC2)cc1)([O-])=O 0.558, NCC1COc2ccccc2O1 (stereo not drawn) 1.2, CS(=O)(=O)NCCSc1ccc(Cl)cc1 1.13, C(=C/c1ccccc1)/C=N\N1CCN(C2c3ccccc3-c3ccccc32)CC1 0.977, CC1(C)CC(=O)/C(=C/c2cccs2)C(C)(C)N1 1.45, O=S(=O)(NCCC12CC3CC(CC(C3)C1)C2)c1ccc(S(=O)(=O)N2CCOCC2)cc1 0.878, Cc1ccc(S(=O)(=O)CC(=O)Nc2nc3c(s2)C(=O)CC(C)(C)C3)cc1 0.928, COC(=O)C(C)Nc1n[nH]c(=O)[nH]c1=O (stereo not drawn) 1.3, COc1ccc(S(N)(=O)=O)cc1 1.12, CCCCCCCCCCSc1nc2c(c(=O)[nH]c(=O)n2C)n1CCCC 1.32, O=C1c2ccccc2S(=O)(=O)N1CC(O)Cn1c2ccc(Br)cc2c2cc(Br)ccc21 (stereo not drawn) 1.05, CC1(C)CC(=O)C2=C(C1)SC(c1ccco1)C(C#N)=C2N (stereo not drawn) 1.13, O=c1ccn(CN2CCCCC2)c(=O)n1CN1CCCCC1 1.01, Cn1c(-c2ccccc2)nn(CN2CCN(C(c3ccccc3)c3ccccc3)CC2)c1=S 0.958, Clc1ccc(CN2CCN(Cc3ccc(Cl)cc3)C2c2ccncc2)cc1 1.73, [O-][n+]1onc(/N=N\c2no[n+]([O-])c2-c2ccccc2)c1-c1ccccc1 0.743, O=C(O)c1cc2n(n1)C(C(F)(F)F)CC(C1CC1)N2 (stereo not drawn) 1.05, CN1C(=O)C(C(=O)O)NC1=S (stereo not drawn) 1.16, O=[N+]([O-])c1cn[nH]c1N1CCN(Cc2ccc3c(c2)OCO3)CC1 1.22, CC(=O)c1ccc(C(C)(C)c2ccc(C(C)(C)c3ccc(C(C)=O)s3)s2)s1 1.11, O=C1CCCCCCCC(=O)OCCCCCCO1 1.29, N#C/N=C(/N)c1sc(Nc2ccccc2)nc1N 0.995, O=S(=O)(Nc1ccncc1)c1ccc(Br)cc1 1.09, COc1ccc(-c2nn(CN3CCOCC3)c(=S)[nH]2)cc1 1.3, C=C(C)CSc1nc2c(cc1C#N)CCC2 1.07, C=CC[n+]1ccc(C)cc1N.[Br-] 1.2, Cc1nc2onc(N)c2c(C)c1Cl 1.05, Fc1ccc(NC(=S)Nc2ccc(Br)c(Cl)c2)cc1 0.886, Clc1cccc(Cl)c1CSc1nc2ccccc2o1 1.15, COc1ccc(Nc2snc(Cl)c2C#N)cc1 0.546, C=CCOc1nc(OC)nc(N2CCCC2)n1 0.909, Cn1nnc(-c2nc(N3CCOCC3)nc(N3CCOCC3)n2)n1 1.31, CC1=NNc2c([N+](=O)[O-])nc(C)n2C1 1.17, CCN(Cc1nonc1C)C(=O)c1ccnn1C(F)F 1.12, O=C(O)CC(Sc1cccs1)C(=O)O (stereo not drawn) 1.35, N#CC1=C(N)C(C#N)(C#N)[C@@H](c2ccc(F)cc2)[C@@H]2CSCC=C12 1.19, Fc1ccc(NC(=S)Nc2ccc(Br)cc2)c(F)c1 0.68, CC1CN(C(=O)C(C)C)CC(C)O1 (stereo not drawn) 1.09, Cc1ccsc1/C=N/NC(=O)Cc1cc(=O)[nH][nH]1 0.971, Clc1ncc(Br)c(Cl)n1 1.15, CS(=O)(=O)N1CCN(c2c([N+](=O)[O-])cc(C(F)(F)F)cc2[N+](=O)[O-])CC1 1.18, c1ccc2c(Cc3ccncc3)c3ccccc3nc2c1 1.32, N#Cc1cnc2c(C#N)cnn2c1N 1.01, O=C1CSC(=S)N1Cc1cccnc1 1.71, CC1CCc2c(sc(N)c2C#N)C1 (stereo not drawn) 1.14, CS(=O)(=O)N(Cc1ccon1)c1ccc2c(c1)OCO2 1.22, N#CC1Cc2cc(Br)ccc2-c2cc(F)ccc21 (stereo not drawn) 1.05, S=C([S-])N(CCN(Cc1cccs1)C(=S)[S-])Cc1cccs1.[Na+].[Na+] 0.992, O=C1CS/C(=N\c2cnn(COc3ccc(Br)cc3)c2)N1C1CC1 1.6, CNCC1OCCc2ccccc21 (stereo not drawn) 1.12, c1ccc(-n2c3c(c4ccccc42)CCC3)cc1 1.07, Fc1ccc(-c2nnc(S)o2)cc1 1.07, Cc1ccc(/C=N\NC(N)=S)s1 1.07, O=C(O)CCc1ccc(-c2cccs2)o1 1.31, OC1(c2ccccc2)Oc2ccccc2N=C1c1ccccc1 (stereo not drawn) 0.927
